Results are given in words; binding and its absence hold for the method and conditions named. In cells and extracts the contact can be indirect. Some results given as binding are weak or reduced against the parent protein; the word gives no strength. Tags and fused reporters may be left off the sequences shown.
Target: T1, Sph1-VC (synphilin-1 fused in front of the C-terminal fragment of Venus) (human) (UniProt Q9Y6H5)
T1 sequence: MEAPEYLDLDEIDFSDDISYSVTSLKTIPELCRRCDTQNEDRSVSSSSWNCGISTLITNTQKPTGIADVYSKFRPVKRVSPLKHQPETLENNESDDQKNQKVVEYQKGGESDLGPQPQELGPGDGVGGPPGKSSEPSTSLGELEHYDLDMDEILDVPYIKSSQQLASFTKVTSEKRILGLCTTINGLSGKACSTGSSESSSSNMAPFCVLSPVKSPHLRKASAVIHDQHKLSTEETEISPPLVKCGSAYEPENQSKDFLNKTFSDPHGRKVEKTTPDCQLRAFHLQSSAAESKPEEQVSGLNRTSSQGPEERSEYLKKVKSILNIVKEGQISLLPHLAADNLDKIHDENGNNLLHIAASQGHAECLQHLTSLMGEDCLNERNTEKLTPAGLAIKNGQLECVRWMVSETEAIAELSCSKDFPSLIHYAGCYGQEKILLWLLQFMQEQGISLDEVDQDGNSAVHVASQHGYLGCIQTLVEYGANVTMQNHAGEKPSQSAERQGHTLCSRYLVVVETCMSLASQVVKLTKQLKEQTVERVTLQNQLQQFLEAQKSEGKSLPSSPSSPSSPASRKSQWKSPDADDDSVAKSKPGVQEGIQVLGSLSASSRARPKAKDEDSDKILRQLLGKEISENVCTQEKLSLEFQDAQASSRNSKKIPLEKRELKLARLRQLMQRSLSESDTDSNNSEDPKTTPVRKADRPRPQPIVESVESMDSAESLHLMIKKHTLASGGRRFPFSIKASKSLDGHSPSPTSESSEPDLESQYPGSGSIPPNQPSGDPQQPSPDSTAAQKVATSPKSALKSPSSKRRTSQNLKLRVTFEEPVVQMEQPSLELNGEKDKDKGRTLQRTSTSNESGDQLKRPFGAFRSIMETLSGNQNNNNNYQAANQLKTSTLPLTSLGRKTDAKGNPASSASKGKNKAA
Test: split reporter

B1: VN-Sph1 (synphilin-1 fused behind the N-terminal fragment of Venus) (protein, UniProt Q9Y6H5 1-919)
chain: MEAPEYLDLDEIDFSDDISYSVTSLKTIPELCRRCDTQNEDRSVSSSSWNCGISTLITNTQKPTGIADVYSKFRPVKRVSPLKHQPETLENNESDDQKNQKVVEYQKGGESDLGPQPQELGPGDGVGGPPGKSSEPSTSLGELEHYDLDMDEILDVPYIKSSQQLASFTKVTSEKRILGLCTTINGLSGKACSTGSSESSSSNMAPFCVLSPVKSPHLRKASAVIHDQHKLSTEETEISPPLVKCGSAYEPENQSKDFLNKTFSDPHGRKVEKTTPDCQLRAFHLQSSAAESKPEEQVSGLNRTSSQGPEERSEYLKKVKSILNIVKEGQISLLPHLAADNLDKIHDENGNNLLHIAASQGHAECLQHLTSLMGEDCLNERNTEKLTPAGLAIKNGQLECVRWMVSETEAIAELSCSKDFPSLIHYAGCYGQEKILLWLLQFMQEQGISLDEVDQDGNSAVHVASQHGYLGCIQTLVEYGANVTMQNHAGEKPSQSAERQGHTLCSRYLVVVETCMSLASQVVKLTKQLKEQTVERVTLQNQLQQFLEAQKSEGKSLPSSPSSPSSPASRKSQWKSPDADDDSVAKSKPGVQEGIQVLGSLSASSRARPKAKDEDSDKILRQLLGKEISENVCTQEKLSLEFQDAQASSRNSKKIPLEKRELKLARLRQLMQRSLSESDTDSNNSEDPKTTPVRKADRPRPQPIVESVESMDSAESLHLMIKKHTLASGGRRFPFSIKASKSLDGHSPSPTSESSEPDLESQYPGSGSIPPNQPSGDPQQPSPDSTAAQKVATSPKSALKSPSSKRRTSQNLKLRVTFEEPVVQMEQPSLELNGEKDKDKGRTLQRTSTSNESGDQLKRPFGAFRSIMETLSGNQNNNNNYQAANQLKTSTLPLTSLGRKTDAKGNPASSASKGKNKAA
  binding: binds

— publication doi:10.1101/2024.03.05.583522
